# From the supplement of paper PMC6411743
# ± gives the standard deviation of the averaged measurements. The entries are a selection whose mix differs from that of the whole data set.
# Columns and labels:
# Test in all cases: NP40-soluble protein abundance relative to vehicle (solubility fold change) (ratio); higher = more soluble protein in presence of ATP
# [1] = biological target: T1, A0A0A6YYL4|P57737-3|P57737-4 (UniProt P57737)
# T1 sequence (whole entry): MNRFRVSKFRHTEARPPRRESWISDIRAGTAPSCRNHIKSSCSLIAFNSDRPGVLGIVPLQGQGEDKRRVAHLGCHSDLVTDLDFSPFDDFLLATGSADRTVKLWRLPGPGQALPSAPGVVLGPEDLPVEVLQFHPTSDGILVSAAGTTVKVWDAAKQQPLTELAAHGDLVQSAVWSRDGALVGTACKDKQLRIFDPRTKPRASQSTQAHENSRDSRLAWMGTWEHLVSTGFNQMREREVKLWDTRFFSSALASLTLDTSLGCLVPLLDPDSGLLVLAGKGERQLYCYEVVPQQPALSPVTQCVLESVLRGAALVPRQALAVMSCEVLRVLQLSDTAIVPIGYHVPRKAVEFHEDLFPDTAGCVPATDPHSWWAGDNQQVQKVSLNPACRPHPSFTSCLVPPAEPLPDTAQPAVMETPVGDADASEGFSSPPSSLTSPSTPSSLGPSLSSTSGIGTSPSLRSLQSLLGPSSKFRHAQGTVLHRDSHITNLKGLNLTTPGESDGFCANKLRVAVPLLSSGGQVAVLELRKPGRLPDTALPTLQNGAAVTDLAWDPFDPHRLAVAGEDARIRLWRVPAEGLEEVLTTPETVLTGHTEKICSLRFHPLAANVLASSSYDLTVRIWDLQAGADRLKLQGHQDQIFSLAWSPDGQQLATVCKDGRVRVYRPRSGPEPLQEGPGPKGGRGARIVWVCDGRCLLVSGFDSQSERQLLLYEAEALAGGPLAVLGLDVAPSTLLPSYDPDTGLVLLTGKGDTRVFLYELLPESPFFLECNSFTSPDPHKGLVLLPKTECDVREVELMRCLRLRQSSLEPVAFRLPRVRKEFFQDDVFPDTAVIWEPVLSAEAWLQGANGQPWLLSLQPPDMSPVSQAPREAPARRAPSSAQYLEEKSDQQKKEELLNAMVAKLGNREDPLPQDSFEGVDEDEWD
# In short: (§1)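 Jurkat crude lysate (Dounce-homogenised) was treated with eight concentrations from 0.1 to 10 mM for 10 min at room temperature, then 3 min at 37 °C. It was solubilised with 0.8% NP40 and benzonase (60 min, 4 °C) and ultracentrifuged, and the supernatant was TMT-labelled for LC-MS/MS. Intensities were vsn-normalised, and the value is the fold change against the NP40-processed vehicle per replicate, from three independent experiments.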
# [2] = biological target: T2, A0A0C3SFZ9|O14526 and related entries (UniProt O14526)
# T2 sequence (whole entry): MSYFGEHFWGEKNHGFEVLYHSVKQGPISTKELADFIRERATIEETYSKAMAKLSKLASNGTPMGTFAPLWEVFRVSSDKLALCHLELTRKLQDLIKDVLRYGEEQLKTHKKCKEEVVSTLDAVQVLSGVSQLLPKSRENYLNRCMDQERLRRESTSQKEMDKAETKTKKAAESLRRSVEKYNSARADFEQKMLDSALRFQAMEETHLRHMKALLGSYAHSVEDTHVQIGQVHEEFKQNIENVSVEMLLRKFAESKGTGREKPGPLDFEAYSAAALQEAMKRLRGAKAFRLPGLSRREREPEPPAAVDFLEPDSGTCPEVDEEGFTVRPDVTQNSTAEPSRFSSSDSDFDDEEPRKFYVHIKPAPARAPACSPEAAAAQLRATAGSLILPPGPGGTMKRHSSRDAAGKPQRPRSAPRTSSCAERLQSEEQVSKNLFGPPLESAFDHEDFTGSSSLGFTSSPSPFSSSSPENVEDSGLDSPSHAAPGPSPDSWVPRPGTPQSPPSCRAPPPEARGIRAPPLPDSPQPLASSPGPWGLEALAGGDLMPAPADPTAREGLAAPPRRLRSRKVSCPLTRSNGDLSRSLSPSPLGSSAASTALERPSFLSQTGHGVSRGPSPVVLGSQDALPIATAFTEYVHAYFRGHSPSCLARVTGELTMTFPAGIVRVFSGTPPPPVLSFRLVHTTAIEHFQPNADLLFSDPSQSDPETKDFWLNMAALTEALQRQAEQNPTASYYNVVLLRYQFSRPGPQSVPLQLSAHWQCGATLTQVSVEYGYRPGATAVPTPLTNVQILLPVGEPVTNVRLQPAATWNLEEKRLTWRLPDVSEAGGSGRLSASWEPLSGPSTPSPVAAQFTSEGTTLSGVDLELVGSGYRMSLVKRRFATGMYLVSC
# In short: as §1
# A0A0C4DFV0|Q9H469 = biological target: T3, A0A0C4DFV0|Q9H469 (UniProt Q9H469)
# T3 sequence (whole entry): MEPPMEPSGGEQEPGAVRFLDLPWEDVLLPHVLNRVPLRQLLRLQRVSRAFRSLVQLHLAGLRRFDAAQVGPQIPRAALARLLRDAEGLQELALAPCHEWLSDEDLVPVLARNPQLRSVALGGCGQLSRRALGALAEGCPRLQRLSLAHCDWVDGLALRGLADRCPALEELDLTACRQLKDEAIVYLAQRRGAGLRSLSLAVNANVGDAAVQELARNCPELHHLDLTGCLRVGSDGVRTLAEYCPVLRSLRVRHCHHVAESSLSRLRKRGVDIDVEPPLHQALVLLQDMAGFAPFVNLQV
# In short: as §1
# A0A0C4DG89|Q7L014 = biological target: T4, A0A0C4DG89|Q7L014 (UniProt Q7L014)
# T4 sequence (whole entry): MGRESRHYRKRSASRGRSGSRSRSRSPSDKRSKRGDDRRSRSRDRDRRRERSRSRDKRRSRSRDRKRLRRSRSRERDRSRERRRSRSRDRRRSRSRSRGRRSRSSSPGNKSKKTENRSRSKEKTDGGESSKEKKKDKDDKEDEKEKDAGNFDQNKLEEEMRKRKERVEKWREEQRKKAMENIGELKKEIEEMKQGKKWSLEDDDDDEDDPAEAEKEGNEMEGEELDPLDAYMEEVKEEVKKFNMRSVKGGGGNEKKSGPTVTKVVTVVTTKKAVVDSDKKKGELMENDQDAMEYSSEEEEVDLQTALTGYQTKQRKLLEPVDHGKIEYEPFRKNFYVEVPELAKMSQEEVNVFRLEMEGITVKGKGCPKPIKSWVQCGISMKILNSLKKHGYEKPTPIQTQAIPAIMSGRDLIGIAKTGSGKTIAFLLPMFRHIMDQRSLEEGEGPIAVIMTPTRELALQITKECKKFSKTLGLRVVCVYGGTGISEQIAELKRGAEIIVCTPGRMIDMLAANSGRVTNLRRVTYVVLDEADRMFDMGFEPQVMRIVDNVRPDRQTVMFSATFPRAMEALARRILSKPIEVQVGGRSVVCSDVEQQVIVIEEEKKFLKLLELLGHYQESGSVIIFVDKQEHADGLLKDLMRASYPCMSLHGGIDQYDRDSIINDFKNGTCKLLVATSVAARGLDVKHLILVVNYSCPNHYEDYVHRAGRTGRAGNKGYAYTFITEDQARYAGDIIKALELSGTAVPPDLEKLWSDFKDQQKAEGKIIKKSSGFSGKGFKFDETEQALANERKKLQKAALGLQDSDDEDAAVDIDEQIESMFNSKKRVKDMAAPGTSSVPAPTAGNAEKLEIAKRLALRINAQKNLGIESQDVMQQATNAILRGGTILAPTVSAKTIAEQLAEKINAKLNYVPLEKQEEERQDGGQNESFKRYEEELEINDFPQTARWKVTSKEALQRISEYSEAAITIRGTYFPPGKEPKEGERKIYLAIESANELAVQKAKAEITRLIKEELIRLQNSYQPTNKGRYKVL
# In short: as §1
# [3] = biological target: T5, A0A0C4DGS5|B7ZC06 and related entries (UniProt Q08379)
# T5 sequence (whole entry): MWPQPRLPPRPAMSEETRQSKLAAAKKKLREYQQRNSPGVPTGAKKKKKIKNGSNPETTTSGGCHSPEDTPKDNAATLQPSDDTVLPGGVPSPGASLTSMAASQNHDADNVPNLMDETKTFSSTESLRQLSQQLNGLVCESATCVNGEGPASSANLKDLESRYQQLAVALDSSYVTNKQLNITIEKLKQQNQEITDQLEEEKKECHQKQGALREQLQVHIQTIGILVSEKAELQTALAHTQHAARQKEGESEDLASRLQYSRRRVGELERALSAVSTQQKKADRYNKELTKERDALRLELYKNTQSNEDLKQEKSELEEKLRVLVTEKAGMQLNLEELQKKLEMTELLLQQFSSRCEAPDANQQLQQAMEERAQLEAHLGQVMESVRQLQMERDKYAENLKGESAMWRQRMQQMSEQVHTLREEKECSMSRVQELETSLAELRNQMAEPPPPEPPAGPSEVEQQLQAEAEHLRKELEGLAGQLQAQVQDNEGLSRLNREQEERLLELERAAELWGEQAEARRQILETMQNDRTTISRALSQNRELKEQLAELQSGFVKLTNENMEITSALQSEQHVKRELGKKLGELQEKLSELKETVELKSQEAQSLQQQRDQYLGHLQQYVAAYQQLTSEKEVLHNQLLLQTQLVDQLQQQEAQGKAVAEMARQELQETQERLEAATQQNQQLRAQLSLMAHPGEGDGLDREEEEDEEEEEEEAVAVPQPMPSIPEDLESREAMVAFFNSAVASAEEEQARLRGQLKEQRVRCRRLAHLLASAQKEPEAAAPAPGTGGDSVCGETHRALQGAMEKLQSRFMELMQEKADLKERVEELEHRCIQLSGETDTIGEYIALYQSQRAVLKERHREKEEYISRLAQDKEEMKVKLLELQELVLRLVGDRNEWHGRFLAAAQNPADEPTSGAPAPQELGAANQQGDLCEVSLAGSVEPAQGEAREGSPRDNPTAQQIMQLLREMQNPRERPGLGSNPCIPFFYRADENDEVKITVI
# In short: as §1
smiles,measurement,setting,value
Nc1ncnc2c1ncn2[C@@H]1O[C@H](COP(=O)(O)OP(=O)(O)OP(=O)(O)O)[C@@H](O)[C@H]1O [adenosine triphosphate],NP40-soluble protein abundance,[1]; concentration: 6mM,0.955 ± 0.034
same,NP40-soluble protein abundance,[1]; concentration: 8mM,0.96 ± 0.015
same,NP40-soluble protein abundance,[1]; concentration: 10mM,0.9419 ± 0.0061
same,NP40-soluble protein abundance,[2]; concentration: 1mM,0.947 ± 0.022
same,NP40-soluble protein abundance,[2]; concentration: 2mM,0.966 ± 0.01
same,NP40-soluble protein abundance,[2]; concentration: 4mM,0.98 ± 0.027
same,NP40-soluble protein abundance,[2]; concentration: 6mM,0.974 ± 0.054
same,NP40-soluble protein abundance,[2]; concentration: 8mM,0.94 ± 0.063
same,NP40-soluble protein abundance,[2]; concentration: 10mM,0.972 ± 0.0061
same,NP40-soluble protein abundance,A0A0C4DFV0|Q9H469; concentration: 1mM,0.994 ± 0.091
same,NP40-soluble protein abundance,A0A0C4DFV0|Q9H469; concentration: 2mM,1.01 ± 0.076
same,NP40-soluble protein abundance,A0A0C4DFV0|Q9H469; concentration: 4mM,1.04 ± 0.027
same,NP40-soluble protein abundance,A0A0C4DFV0|Q9H469; concentration: 6mM,1.02 ± 0.042
same,NP40-soluble protein abundance,A0A0C4DFV0|Q9H469; concentration: 8mM,0.999 ± 0.074
same,NP40-soluble protein abundance,A0A0C4DFV0|Q9H469; concentration: 10mM,1.01 ± 0.12
same,NP40-soluble protein abundance,A0A0C4DG89|Q7L014; concentration: 1mM,1.11 ± 0.034
same,NP40-soluble protein abundance,A0A0C4DG89|Q7L014; concentration: 2mM,1.1 ± 0.018
same,NP40-soluble protein abundance,A0A0C4DG89|Q7L014; concentration: 4mM,1.1 ± 0.021
same,NP40-soluble protein abundance,A0A0C4DG89|Q7L014; concentration: 6mM,1.16 ± 0.022
same,NP40-soluble protein abundance,A0A0C4DG89|Q7L014; concentration: 8mM,1.13 ± 0.015
same,NP40-soluble protein abundance,A0A0C4DG89|Q7L014; concentration: 10mM,1.14 ± 0.033
same,NP40-soluble protein abundance,[3]; concentration: 1mM,0.943 ± 0.056
same,NP40-soluble protein abundance,[3]; concentration: 2mM,0.957 ± 0.041
same,NP40-soluble protein abundance,[3]; concentration: 4mM,0.961 ± 0.05
same,NP40-soluble protein abundance,[3]; concentration: 6mM,1.01 ± 0.07
same,NP40-soluble protein abundance,[3]; concentration: 8mM,0.941 ± 0.045
same,NP40-soluble protein abundance,[3]; concentration: 10mM,0.974 ± 0.029

# Two entries from above in another layout.
smiles	measurement	setting	value
Nc1ncnc2c1ncn2[C@@H]1O[C@H](COP(=O)(O)OP(=O)(O)OP(=O)(O)O)[C@@H](O)[C@H]1O [adenosine triphosphate]	NP40-soluble protein abundance	A0A0C4DG89|Q7L014; concentration: 6mM	1.16 ± 0.022
same	NP40-soluble protein abundance	A0A0C4DG89|Q7L014; concentration: 8mM	1.13 ± 0.015
